Data source: PubChem BioAssay AID1159584 (Peter MacCallum Cancer Centre, 2016)
Shown is one part, drawn at random, of about 18,000 reagents. Not all columns of the deposit are shown. The record does not give: the amount of reagent, the time to read-out.

Aim: 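Genes whose loss is lethal only together with E-cadherin loss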 (primary screen)
System: human MCF10A breast epithelial cells, parental and CDH1-null
Reagent: siRNA against human genes
Measurement: 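ATP luminescence (CellTiter-Glo) viability per line relative to mean mock wells over all plates, and the ratio of CDH1-null to parental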
Scale: CDH1-null / parental viability ratio: higher = CDH1-null cells survive relatively better than parental

MIMS1 (mitochondrial inner membrane structural 1) [SID152154221] | CDH1-null / parental viability ratio = 0.96
IER5L (immediate early response 5 like) [SID135625038] | CDH1-null / parental viability ratio = 0.93
AAGAB (alpha and gamma adaptin binding protein) [SID152149744] | CDH1-null / parental viability ratio = 0.79
CAMTA2 (calmodulin binding transcription activator 2) [SID135623666] | CDH1-null / parental viability ratio = 1.17
TP53BP1 (tumor protein p53 binding protein 1) [SID134309949] | CDH1-null / parental viability ratio = 1.05
ERC2 (ELKS/RAB6-interacting/CAST family member 2) [SID134317250] | CDH1-null / parental viability ratio = 0.87
C9orf78 (chromosome 9 open reading frame 78) [SID135623944] | CDH1-null / parental viability ratio = 1.33
NUDT12 (nudix hydrolase 12) [SID134324942] | CDH1-null / parental viability ratio = 1.39
GUF1 (GTP binding elongation factor GUF1) [SID152154855] | CDH1-null / parental viability ratio = 0.81
MTIF2 (mitochondrial translational initiation factor 2) [SID135622108] | CDH1-null / parental viability ratio = 1
ZNF217 (zinc finger protein 217) [SID134310701] | CDH1-null / parental viability ratio = 1.19
ANKRD11 (ankyrin repeat domain 11) [SID152148091] | CDH1-null / parental viability ratio = 1.14
SLC7A6 [SID134312662] | CDH1-null / parental viability ratio = 1.15
NOG (noggin) [SID134316357] | CDH1-null / parental viability ratio = 1.13

Laid out differently: results already given
| gene | PubChem SID | CDH1-null / parental viability ratio |
| --- | --- | --- |
| NUDT12 (nudix hydrolase 12) | SID134324942 | 1.39 |
| GUF1 (GTP binding elongation factor GUF1) | SID152154855 | 0.81 |
